Reference: PubChem BioAssay AID493014 (National Center for Advancing Translational Sciences (NCATS), 2011)
This is one part of the list. The main result of the screen is listed elsewhere. These columns were measured beside it and carry no call. Compounds called inactive in the main read-out are mostly missing here. Potencies come from curve fits of mixed quality, noted in brackets.

Test: qHTS Assay to Find Inhibitors of Chronic Active B-Cell Receptor Signaling
Details: ABC-DLBCL IkBa-CBG/CBR reporter, luminescence ratio (green luciferase fused to IkBa over red control in TMD8 lymphoma cells), 4 h
In short: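 Cell line TMD8 (human ABC DLBCL), stably expressing tet-inducible CBG68-IkBa fusion and CBR; IMDM/0.5% FBS; cpd up to 46 uM; dox induction, 4 h, 37C/5% CO2; dual luminescence; green/red ratio; MG132 control.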

[1] = measured here: CBR red luminescence, cell number
[2] = measured here: IkBa-CBG green luminescence

| Compound | AC50 [1] | AC50 [2] |
| --- | --- | --- |
| CC(C)OC(=O)c1ccc(N2CCN(c3ccccc3F)CC2)nc1 | 3.98 µM [rising, partial curve, poor fit] |  |
| O=C1c2cccc(OCc3ccc(F)cc3)c2CCN1Cc1ccccc1 | 5.8 µM [falling, partial curve] |  |
| COc1cc(/C=C/C(=O)OCC(=O)N2CCCc3ccccc32)ccc1O | 25.9 µM [rising, single point] | 23.1 µM [falling, single point] |
| CCOc1ccc(NC(=O)c2ccccc2NS(=O)(=O)c2ccc(F)cc2)c([N+](=O)[O-])c1 | 20.6 µM [falling, partial curve, poor fit] |  |
| O=C(Nc1ccccc1)Nc1ccc2ccccc2c1 | 7.08 µM [falling, partial curve] |  |
| O=C(N/N=C/c1cc2c(cc1Br)OCO2)c1cccnc1 | 11.2 µM [falling, partial curve] |  |
| N#C/C(=C(/O)COc1ccc(Cl)cc1)c1nc2ccccc2s1 | 7.08 µM [falling, partial curve, poor fit] |  |
| CN1/C(=C\C(=O)COC(=O)c2ccc(O)cc2)C(C)(C)c2ccccc21 | 35.5 µM [falling, partial curve, poor fit] |  |
| CC(=O)c1cccc(NC(=O)C2CCCN2S(=O)(=O)c2cccc3nsnc23)c1 (stereo not drawn) | 8.91 µM [rising, partial curve] |  |
| CCNC(=O)Cn1cnc2c1c(=O)n(C)c(=O)n2C | 29.1 µM [rising, single point] |  |
| CCc1nnc(NS(=O)(=O)c2ccc(NC(=S)NC(=O)c3ccccc3)cc2)s1 | 23.1 µM [falling, partial curve, poor fit] | 23.1 µM [rising, partial curve, poor fit] |
| CC(C)(C)c1ccc(C(=O)Nc2ccc(C=C(C#N)C#N)cc2)cc1 | 10.3 µM [rising, partial curve, poor fit] |  |
| Cc1ccc(C)c(S(=O)(=O)N2CCN(C(=O)CCC(=O)NCc3ccc(Cl)cc3)CC2)c1 | 0.231 µM [rising, full curve, poor fit] |  |
| O=C(O)c1ccccc1NS(=O)(=O)c1ccc(NN=Cc2ccccc2F)c([N+](=O)[O-])c1 | 25.9 µM [rising, single point] |  |
| O=C(CCSc1ccccc1)NCCSCc1ccco1 | 23.1 µM [falling, partial curve, poor fit] |  |
| COc1ccccc1OCc1cc(C(=O)N(C)CCC2CCCCO2)no1 (stereo not drawn) | 10 µM [rising, partial curve] |  |
| CC(C)c1ccc(NC2CCCN(C(=O)CCN3CCCO3)C2)cc1 (stereo not drawn) | 3.55 µM [rising, full curve, poor fit] |  |
| Cc1ccc(CN2CCN(CCCn3cccn3)CC2CCO)cc1 (stereo not drawn) | 25.1 µM [rising, single point] |  |
| COc1ccccc1NC(=S)NCCc1c[nH]c2ccccc12 | 35.5 µM [falling, single point] |  |
| COc1ccc(-c2n[nH]c(C(F)(F)F)c2-c2cc3ccccc3o2)c(O)c1 | 22.4 µM [falling, single point] |  |
| COc1ccc(C(=O)NNC(=S)NC(=O)/C=C/c2cccs2)cc1 | 35.5 µM [falling, single point] |  |
| CCOc1ccc(C2C([N+](=O)[O-])=C(C)N(C)C(=O)N2C)cc1OC (stereo not drawn) | 35.5 µM [falling, single point] |  |

Structural class: the entries above with a cyano group (2)

| Compound | AC50 [1] | AC50 [2] |
| --- | --- | --- |
| N#C/C(=C(/O)COc1ccc(Cl)cc1)c1nc2ccccc2s1 | 7.08 µM [falling, partial curve, poor fit] |  |
| CC(C)(C)c1ccc(C(=O)Nc2ccc(C=C(C#N)C#N)cc2)cc1 | 10.3 µM [rising, partial curve, poor fit] |  |

Further results follow.

| Compound | AC50 [1] | AC50 [2] |
| --- | --- | --- |
| CCOC(=O)c1nn(-c2ccc(C)cc2)cc1O | 32.6 µM [falling, single point] |  |
| Cc1ccc(S(=O)(=O)Nc2ccc(C(OC(=O)c3ccccc3[N+](=O)[O-])(C(F)(F)F)C(F)(F)F)cc2)cc1 | 16.4 µM [falling, partial curve, poor fit] |  |
| CCc1sc(C(=O)NC2CCN(C)CC2)cc1Br | 6.51 µM [falling, single point] |  |
| C=CCc1ccc(OCc2ccc(C(=O)O)o2)c(OC)c1 | 2 µM [falling, full curve] |  |
| CCc1c(C)sc(NC(=O)c2cc(C3CC3)on2)c1C#N | 8.91 µM [rising, partial curve, poor fit] |  |
| COc1cccc(C(=O)NC(=S)Nn2cnnc2)c1OC | 1.58 µM [rising, partial curve, poor fit] |  |
| COC(=O)C1CC(=O)N(c2ccc(OCc3ccccc3Cl)cc2)C1 (stereo not drawn) | 10 µM [falling, single point] |  |
| CN1CCN(c2ccccc2NC(=O)COc2ccc(Br)cc2)CC1 | 20.6 µM [falling, single point] |  |
| COc1ccc(C(CCN)c2ccc3c(c2)OCO3)cc1 (stereo not drawn) | 3.55 µM [falling, partial curve, poor fit] |  |
| CCOc1ccc(OCCSc2nnnn2C2CCCCC2)cc1 | 0.116 µM [falling, full curve, poor fit] |  |
| Cc1cc(CNC(=O)CC2C(=O)NCCN2Cc2ccccc2C(F)(F)F)on1 (stereo not drawn) | 35.5 µM [rising, single point] |  |
| COc1cc(C(=O)NNC(=S)NC(=O)/C=C/c2ccccc2)cc(OC)c1OC | 3.16 µM [rising, full curve] |  |
| COc1cccc(C(=O)Nc2cccc3ccccc23)c1OC | 22.4 µM [rising, partial curve, poor fit] |  |
| CC(=O)Nc1cccc(C(=O)N2CCN(Cc3ccccc3)CC2)c1 | 6.51 µM [rising, single point] |  |
| CCOC(=O)c1c(NC(=O)COC(=O)c2cc(OC)c(OC)cc2[N+](=O)[O-])sc(C)c1C | 3.66 µM [rising, single point] |  |
| CCOC(=O)C1CCN(Cc2nnc(-c3ccccc3C)o2)CC1 | 35.5 µM [rising, single point] |  |
| Cc1ccc(/C=N/NC(=O)Cc2cccn2C)s1 | 6.51 µM [rising, single point] |  |
| Cc1ccc(Cl)cc1Nc1nc(-c2sc(NC(=O)c3ccco3)nc2C)cs1 | 5.62 µM [falling, full curve] |  |
| CCc1ccc(/C=C2\SC(=S)N(CCC(=O)Nc3cc(C)on3)C2=O)cc1 | 1.41 µM [falling, full curve, poor fit] |  |
| O=C(NC(=S)Nc1ccc2oc(=O)ccc2c1)c1ccccc1F | 35.5 µM [falling, single point] |  |
| O=C(Nc1ccccc1F)Oc1cccc(OC(=O)Nc2ccccc2F)c1 | 14.1 µM [falling, partial curve] |  |
| CCNC(=O)C1CC(=O)OC12CCCCC2 (stereo not drawn) | 35.5 µM [falling, partial curve, poor fit] |  |

| Compound | AC50 [1] | AC50 [2] |
| --- | --- | --- |
| Oc1cccc(-c2nc3ccc4ccccc4c3c3c2CCC3)c1 | 29.1 µM [falling, single point] |  |
| Cc1sc(NC(=O)c2ccco2)c(C(Nc2ccccn2)c2ccccc2)c1C (stereo not drawn) | 16.4 µM [falling, single point] |  |
| COc1cccc(C2CC(c3cccs3)=NN2S(C)(=O)=O)c1OC (stereo not drawn) | 17.8 µM [rising, partial curve] |  |
| Cc1nnc(Sc2c(N)n(C)c(=O)n(C)c2=O)s1 | 1.84 µM [rising, partial curve, poor fit] |  |
| COc1ccc(NC(=O)CN(C)C(=O)c2ccc(NS(=O)(=O)c3ccc(C)c([N+](=O)[O-])c3)cc2)cc1 | 20.6 µM [falling, single point] |  |
| Cc1nc2ccccn2c1C(=O)NCc1ccc2c(c1)OCO2 | 12.6 µM [falling, partial curve, poor fit] |  |
| O=C(Nc1nnc(C2CC2)s1)C1Cc2ccccc2CN1S(=O)(=O)c1ccccc1F (stereo not drawn) | 35.5 µM [falling, single point] |  |
| CCOC(=O)/C=C/C(=O)Nc1ccc(S(=O)(=O)N2CCCCCC2)cc1 | 12.6 µM [falling, partial curve, poor fit] |  |
| O=C(NCC1CCCO1)C(=O)c1c[nH]c2ccccc12 (stereo not drawn) | 2.51 µM [falling, full curve] |  |
| CC1(C)Cc2cccc(OCC(=O)Nc3cccnc3Cl)c2O1 | 32.6 µM [rising, single point] |  |
| CCC(=O)N1CCc2cc(S(=O)(=O)CCC(=O)NCc3cccs3)ccc21 | 2.51 µM [falling, partial curve, poor fit] |  |
| CCC(C)[C@H]1CNCCN1CCc1cc(C(F)(F)F)cc(C(F)(F)F)c1 (stereo partly drawn) | 16.4 µM [falling, partial curve] |  |
| C=CCNc1nc(S(=O)Cc2ccc(C)cc2)nc2c1CCCC2 (stereo not drawn) | 35.5 µM [falling, single point] |  |
| CCOc1cc(-c2noc(CCCC(N)=O)n2)cc(Br)c1OC | 7.08 µM [falling, partial curve] |  |
| COc1ccc(N2C(S)=C(C#N)C(=O)NC2c2ccco2)cc1 (stereo not drawn) | 4.61 µM [rising, partial curve] | 23.1 µM [falling, single point] |
| CC(C(=O)N1CCc2ccccc21)N(C)CC(=O)Nc1ccccc1Cl (stereo not drawn) | 3.66 µM [rising, full curve, poor fit] |  |
| CCOC(=O)NNc1ccc2nonc2c1[N+](=O)[O-] | 35.5 µM [falling, single point] | 15.8 µM [rising, partial curve, poor fit] |
| CN(CC(=O)Nc1ccccc1Cl)C(=O)COC(=O)Cc1ccc(F)cc1 | 5.62 µM [rising, single point] |  |
| Cc1[nH]c2ccccc2c1/C=N/Nc1cccc(C(=O)O)c1 | 0.447 µM [falling, full curve, poor fit] |  |
| O=C1CCc2nc3ccccc3c(=O)n2N1 | 29.1 µM [falling, single point] |  |
